Taken from: PubChem BioAssay AID1259405 (NCATS, 2018)

Purpose: 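Silenced genes that increase secreted GFP made by CHO cells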 (primary screen)
Cell system: Chinese hamster CHO-K1 ovary cells with stable secreted eGFP expression
Reagent: single siRNA against mouse genes, 0.8 pmol siRNA per well (2 µl of 400 nM stock)
Timing: 3 days
Measurement: 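Per-well intracellular GFP measured by laser scanning cytometry, plus viability from ATP luminescence, each relative to plate median of non-targeting control wells, in %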
Reading the numbers: GFP, % of control: higher = more GFP per well, higher productivity; viability (ATP), % of control: higher = more viable cells (more ATP)
Call rule: 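Called active when intracellular GFP, relative to negative control, is at or above 120%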
Here is one part, drawn at random, of about 50,000 reagents. About 4,000 of them (8%) count as active. 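Mouse siRNA library applied to hamster cells; one well for each siRNA.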

With Gm5111 (GeneID 330305) [SID363542889], what was measured?
GFP, % of control: 100; viability (ATP), % of control: 50.7; outcome: inactive

For Gm5111 (GeneID 330305) [SID363546406], how do the results read?
GFP, % of control: 36.5; viability (ATP), % of control: 42.2; outcome: inactive

With Gm5111 (GeneID 330305) [SID363548162], how do the results read?
GFP, % of control: 67.7; viability (ATP), % of control: 77.2; outcome: inactive

With Thbs4 (GeneID 21828) [SID363582487], what was measured?
GFP, % of control: 101; viability (ATP), % of control: 113; outcome: inactive

For Thbs4 (GeneID 21828) [SID363584247], what does the deposit list?
GFP, % of control: 58.2; viability (ATP), % of control: 85.5; outcome: inactive

For Pfkm (GeneID 18642) [SID363570845], what does the deposit list?
GFP, % of control: 59.5; viability (ATP), % of control: 66.1; outcome: inactive

What is on record for Itga8 (GeneID 241226) [SID363555276]?
GFP, % of control: 38.8; viability (ATP), % of control: 43.7; outcome: inactive

Which result is listed for Itga8 (GeneID 241226) [SID363563937]?
GFP, % of control: 60.9; viability (ATP), % of control: 57.3; outcome: inactive

For Itga8 (GeneID 241226) [SID363587483], what does the deposit list?
GFP, % of control: 111; viability (ATP), % of control: 100; outcome: inactive

With Pdia4 (GeneID 12304) [SID363568827], what was measured?
GFP, % of control: 58.7; viability (ATP), % of control: 93.4; outcome: inactive

With Pdia4 (GeneID 12304) [SID363576219], what does the deposit list?
GFP, % of control: 45.1; viability (ATP), % of control: 33.4; outcome: inactive

With Pdia4 (GeneID 12304) [SID363579035], how do the results read?
GFP, % of control: 74.4; viability (ATP), % of control: 84.6; outcome: inactive

What did the screen give for Ecm2 (GeneID 407800) [SID363553542]?
GFP, % of control: 75.3; viability (ATP), % of control: 56.3; outcome: inactive

For Ecm2 (GeneID 407800) [SID363561499], how do the results read?
GFP, % of control: 81.4; viability (ATP), % of control: 79.9; outcome: inactive

Which result is listed for Ecm2 (GeneID 407800) [SID363565237]?
GFP, % of control: 86.2; viability (ATP), % of control: 66.8; outcome: inactive

With Dgcr6 (GeneID 13353) [SID363539803], how do the results read?
GFP, % of control: 57.4; viability (ATP), % of control: 76.8; outcome: inactive

Which result is listed for Dgcr6 (GeneID 13353) [SID363561104]?
GFP, % of control: 37.7; viability (ATP), % of control: 29.2; outcome: inactive

With Dgcr6 (GeneID 13353) [SID363565194], what was measured?
GFP, % of control: 117; viability (ATP), % of control: 96.5; outcome: inactive

Which result is listed for Vmn2r26 (GeneID 56552) [SID363545071]?
GFP, % of control: 76.5; viability (ATP), % of control: 87; outcome: inactive

How did the screen score Vmn2r26 (GeneID 56552) [SID363551399]?
GFP, % of control: 53.4; viability (ATP), % of control: 68.3; outcome: inactive

How did the screen score Vmn2r26 (GeneID 56552) [SID363557948]?
GFP, % of control: 26.8; viability (ATP), % of control: 38.7; outcome: inactive

For Ercc3 (GeneID 13872) [SID363569996], what does the deposit list?
GFP, % of control: 98.3; viability (ATP), % of control: 88.1; outcome: inactive

Which result is listed for Ercc3 (GeneID 13872) [SID363577036]?
GFP, % of control: 70.2; viability (ATP), % of control: 68.4; outcome: inactive

For Ercc3 (GeneID 13872) [SID363578444], how do the results read?
GFP, % of control: 41.8; viability (ATP), % of control: 65; outcome: inactive

What is on record for Faf2 (GeneID 76577) [SID363543358]?
GFP, % of control: 80.6; viability (ATP), % of control: 79.6; outcome: inactive

For Faf2 (GeneID 76577) [SID363552851], what was measured?
GFP, % of control: 27.4; viability (ATP), % of control: 41.3; outcome: inactive

For Faf2 (GeneID 76577) [SID363558699], what was measured?
GFP, % of control: 55.4; viability (ATP), % of control: 65.3; outcome: inactive

Reprinted from the listing for reference:
Thbs4 (GeneID 21828) [SID363584247] — GFP, % of control = 58.2; viability (ATP), % of control = 85.5; outcome = inactive
Pfkm (GeneID 18642) [SID363570845] — GFP, % of control = 59.5; viability (ATP), % of control = 66.1; outcome = inactive
Itga8 (GeneID 241226) [SID363555276] — GFP, % of control = 38.8; viability (ATP), % of control = 43.7; outcome = inactive
Itga8 (GeneID 241226) [SID363563937] — GFP, % of control = 60.9; viability (ATP), % of control = 57.3; outcome = inactive
Itga8 (GeneID 241226) [SID363587483] — GFP, % of control = 111; viability (ATP), % of control = 100; outcome = inactive
Pdia4 (GeneID 12304) [SID363568827] — GFP, % of control = 58.7; viability (ATP), % of control = 93.4; outcome = inactive
Pdia4 (GeneID 12304) [SID363576219] — GFP, % of control = 45.1; viability (ATP), % of control = 33.4; outcome = inactive

Continued:
With Afp (GeneID 11576) [SID363570284], what was measured?
GFP, % of control: 74.5; viability (ATP), % of control: 84; outcome: inactive

What is on record for Afp (GeneID 11576) [SID363576620]?
GFP, % of control: 69.6; viability (ATP), % of control: 75.2; outcome: inactive

What is on record for Afp (GeneID 11576) [SID363579788]?
GFP, % of control: 94.8; viability (ATP), % of control: 66.8; outcome: inactive

How did the screen score Prpf38b (GeneID 66921) [SID363540861]?
GFP, % of control: 59.2; viability (ATP), % of control: 78.6; outcome: inactive

Which result is listed for Prpf38b (GeneID 66921) [SID363543312]?
GFP, % of control: 36.2; viability (ATP), % of control: 67.4; outcome: inactive

How did the screen score Prpf38b (GeneID 66921) [SID363552805]?
GFP, % of control: 80; viability (ATP), % of control: 107; outcome: inactive

For Or2h2 (GeneID 258469) [SID363554461], how do the results read?
GFP, % of control: 56.9; viability (ATP), % of control: 64.5; outcome: inactive

Which result is listed for Or2h2 (GeneID 258469) [SID363567908]?
GFP, % of control: 24.8; viability (ATP), % of control: 46.8; outcome: inactive

For Or2h2 (GeneID 258469) [SID363585967], what was measured?
GFP, % of control: 89.4; viability (ATP), % of control: 95; outcome: inactive

For Slco2b1 (GeneID 101488) [SID363575142], what was measured?
GFP, % of control: 66.9; viability (ATP), % of control: 59.5; outcome: inactive

What did the screen give for Slco2b1 (GeneID 101488) [SID363580774]?
GFP, % of control: 49.4; viability (ATP), % of control: 65.3; outcome: inactive

What is on record for Slco2b1 (GeneID 101488) [SID363582886]?
GFP, % of control: 70.9; viability (ATP), % of control: 74.2; outcome: inactive

For Cypt4 (GeneID 235067) [SID363540823], what was measured?
GFP, % of control: 105; viability (ATP), % of control: 114; outcome: inactive

Which result is listed for Cypt4 (GeneID 235067) [SID363543274]?
GFP, % of control: 149; viability (ATP), % of control: 120; outcome: active

For Cypt4 (GeneID 235067) [SID363552767], what does the deposit list?
GFP, % of control: 8.54; viability (ATP), % of control: 5.13; outcome: inactive
